Assay results reported in PMC8141794.

Sequences of proteins named here, by UniProt entry; tags and fusion partners are left off.
UniProt P62332: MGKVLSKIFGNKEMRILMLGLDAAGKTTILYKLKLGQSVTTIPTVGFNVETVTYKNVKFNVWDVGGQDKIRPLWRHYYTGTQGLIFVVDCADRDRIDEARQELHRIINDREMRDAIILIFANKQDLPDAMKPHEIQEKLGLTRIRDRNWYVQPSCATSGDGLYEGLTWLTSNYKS
UniProt Q62848: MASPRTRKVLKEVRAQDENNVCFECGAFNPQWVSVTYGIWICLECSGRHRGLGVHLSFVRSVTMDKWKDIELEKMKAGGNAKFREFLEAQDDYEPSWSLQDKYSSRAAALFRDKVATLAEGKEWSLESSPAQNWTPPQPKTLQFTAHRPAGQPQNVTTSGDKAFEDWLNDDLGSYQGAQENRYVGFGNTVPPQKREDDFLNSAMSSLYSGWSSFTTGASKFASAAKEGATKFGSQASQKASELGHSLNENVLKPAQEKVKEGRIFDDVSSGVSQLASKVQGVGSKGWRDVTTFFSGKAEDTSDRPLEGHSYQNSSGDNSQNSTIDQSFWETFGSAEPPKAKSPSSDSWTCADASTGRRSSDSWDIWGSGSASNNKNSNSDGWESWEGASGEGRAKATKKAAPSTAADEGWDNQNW

Target: T1, GFP-tagged human EAAT3 (human) (UniProt P43005)
T1 sequence: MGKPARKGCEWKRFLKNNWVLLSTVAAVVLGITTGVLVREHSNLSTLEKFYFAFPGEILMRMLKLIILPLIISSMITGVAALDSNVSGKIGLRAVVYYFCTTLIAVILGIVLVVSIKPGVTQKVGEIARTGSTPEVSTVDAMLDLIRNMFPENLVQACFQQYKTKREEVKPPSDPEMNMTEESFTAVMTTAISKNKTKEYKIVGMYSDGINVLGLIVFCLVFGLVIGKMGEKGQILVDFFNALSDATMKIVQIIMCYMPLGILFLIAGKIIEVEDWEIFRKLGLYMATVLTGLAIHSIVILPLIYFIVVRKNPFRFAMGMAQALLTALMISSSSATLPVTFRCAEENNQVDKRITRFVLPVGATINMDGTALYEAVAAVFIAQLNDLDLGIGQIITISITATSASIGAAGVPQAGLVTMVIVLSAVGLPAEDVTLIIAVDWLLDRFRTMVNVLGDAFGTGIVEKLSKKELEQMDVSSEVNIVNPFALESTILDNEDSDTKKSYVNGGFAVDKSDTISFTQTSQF
Assay: affinity purification with mass spectrometry; GFP-hEAAT3 or mGFP from HEK293 held on GFP-Trap beads, washed, incubated with 1% CHAPS-solubilized rat brain lysate (8.65 mg) overnight at 4°C; six washes; SDS-PAGE, in-gel digestion, LC-MS/MS; only the target purified

| Substance | binding |
| --- | --- |
| ADP-ribosylation factor 6 (rat) (from UniProt P62332 1-175) | binds |
| ADP-ribosylation factor GTPase-activating protein 1 (rat) (from UniProt Q62848 1-415) | binds |

Results are given in words; binding and its absence hold for the method and conditions named. Binding seen in cells or lysates may run through a third protein. Here binding means that the protein was enriched with, or labelled near, the bait; the list need not be complete. Tags and fused reporters may be left off the sequences shown.
